No constants are given. Whether binding was seen depends on the method and setting. For some of these results: Binding seen in cells or lysates may run through a third protein. Some entries that bind do so weakly or less than the wild type. For some of these results: Where a sequence is shown, tags or fusion partners need not be part of it.

Chains of the proteins cited; added tags and fusions are not shown.
UniProt A7SLZ2: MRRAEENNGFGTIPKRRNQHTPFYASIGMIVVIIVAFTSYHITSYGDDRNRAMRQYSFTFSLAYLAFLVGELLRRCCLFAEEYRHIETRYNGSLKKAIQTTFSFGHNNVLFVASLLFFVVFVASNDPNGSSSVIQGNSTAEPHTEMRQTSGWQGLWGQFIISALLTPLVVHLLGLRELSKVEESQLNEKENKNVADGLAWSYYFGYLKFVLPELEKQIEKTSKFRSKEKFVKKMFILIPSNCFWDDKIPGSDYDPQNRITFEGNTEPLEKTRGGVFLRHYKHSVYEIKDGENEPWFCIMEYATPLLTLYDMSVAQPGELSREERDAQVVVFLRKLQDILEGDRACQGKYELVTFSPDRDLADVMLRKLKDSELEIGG

Assay [1] addresses T1, HA-DrSTING stably expressed in MEF Sting-/- (MEF^DrSTING) (Danio rerio) (UniProt E7F4N7).
T1 sequence: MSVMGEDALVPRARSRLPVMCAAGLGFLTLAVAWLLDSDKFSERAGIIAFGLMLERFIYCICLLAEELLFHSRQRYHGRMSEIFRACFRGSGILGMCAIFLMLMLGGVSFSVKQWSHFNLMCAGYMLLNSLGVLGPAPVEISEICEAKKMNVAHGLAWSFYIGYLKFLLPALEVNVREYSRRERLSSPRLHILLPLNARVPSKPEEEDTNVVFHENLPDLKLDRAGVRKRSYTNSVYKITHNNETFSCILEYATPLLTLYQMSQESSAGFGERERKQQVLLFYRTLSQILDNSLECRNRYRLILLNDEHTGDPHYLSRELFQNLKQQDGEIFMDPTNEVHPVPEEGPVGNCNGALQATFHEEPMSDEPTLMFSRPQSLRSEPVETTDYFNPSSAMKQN
Description: native gel or EMSA; native electrophoresis (NativePAGE 3-12% Bis-Tris, lysis in 25 mM NaCl, 20 mM HEPES pH 7.0, 10% glycerol, 1% DDM) and Western blot of lysates of MEF lines expressing STING homologs, 1 h or 3 h after 2’3’-cGAMP. A general note: A gel shift assay detects complexes by their altered migration in electrophoresis.

Assay [2] deals with T2, HA-MmSTING (STING of Mus musculus), expressed in HEK 293T (Mus musculus) (UniProt Q3TBT3).
T2 sequence: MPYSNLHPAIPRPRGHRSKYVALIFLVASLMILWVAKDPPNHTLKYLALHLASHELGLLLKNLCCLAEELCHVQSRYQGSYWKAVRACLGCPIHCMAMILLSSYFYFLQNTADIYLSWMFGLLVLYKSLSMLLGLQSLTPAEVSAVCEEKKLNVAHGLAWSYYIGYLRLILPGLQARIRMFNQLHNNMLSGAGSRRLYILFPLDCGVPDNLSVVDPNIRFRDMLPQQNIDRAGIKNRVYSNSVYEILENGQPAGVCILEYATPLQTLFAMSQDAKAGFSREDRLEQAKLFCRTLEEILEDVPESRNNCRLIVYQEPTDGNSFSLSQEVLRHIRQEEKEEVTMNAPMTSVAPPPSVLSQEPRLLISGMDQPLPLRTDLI
Description: co-IP; HA-immunoprecipitation (anti-HA agarose) on whole-cell extracts of HEK 293T transiently co-expressing HA-STING and FADS-FLAG; TENTG-150 buffer, 4 h at 4 °C; HA peptide elution; Western blot. Background: Immunoblotting shows a protein as a band on a membrane.

Assay [3] deals with T3, HA-DrSTING (STING of Danio rerio), expressed in HEK 293T (Danio rerio) (UniProt E7F4N7).
T3 sequence: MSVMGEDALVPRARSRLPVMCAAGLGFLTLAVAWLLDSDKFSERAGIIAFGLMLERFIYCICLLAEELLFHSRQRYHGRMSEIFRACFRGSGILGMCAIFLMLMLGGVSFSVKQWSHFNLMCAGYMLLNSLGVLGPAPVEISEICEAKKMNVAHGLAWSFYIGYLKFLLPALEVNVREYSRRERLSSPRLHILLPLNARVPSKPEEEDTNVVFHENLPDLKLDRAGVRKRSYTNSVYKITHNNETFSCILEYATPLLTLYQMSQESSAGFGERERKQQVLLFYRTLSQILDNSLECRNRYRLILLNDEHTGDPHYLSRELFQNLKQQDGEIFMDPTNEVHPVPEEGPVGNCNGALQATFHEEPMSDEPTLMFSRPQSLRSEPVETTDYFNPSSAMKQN
The assay is described as above.

For assay [4], the target named is HA-NvSTING (STING homolog of Nematostella vectensis), expressed in HEK 293T (Nematostella vectensis) (UniProt A7SLZ2). The description is as above.
Assay [5] addresses T1, HA-DrSTING stably expressed in MEF Sting-/- (MEF^DrSTING) (Danio rerio). Description: co-IP; HA-immunoprecipitation on whole-cell extracts of MEF Sting-/- stably expressing HA-STING homologs; endogenous FADS2 detected by Western blot; TENTG-150 buffer, HA peptide elution.
Assay [6] concerns the target HA-NvSTING stably expressed in MEF Sting-/- (MEF^NvSTING) (Nematostella vectensis) (UniProt A7SLZ2). Described as above.
Assay [7] deals with T4, HA-MmSTING stably expressed in MEF Sting-/- (MEF^MmSting) (Mus musculus) (UniProt Q3TBT3).
T4 sequence: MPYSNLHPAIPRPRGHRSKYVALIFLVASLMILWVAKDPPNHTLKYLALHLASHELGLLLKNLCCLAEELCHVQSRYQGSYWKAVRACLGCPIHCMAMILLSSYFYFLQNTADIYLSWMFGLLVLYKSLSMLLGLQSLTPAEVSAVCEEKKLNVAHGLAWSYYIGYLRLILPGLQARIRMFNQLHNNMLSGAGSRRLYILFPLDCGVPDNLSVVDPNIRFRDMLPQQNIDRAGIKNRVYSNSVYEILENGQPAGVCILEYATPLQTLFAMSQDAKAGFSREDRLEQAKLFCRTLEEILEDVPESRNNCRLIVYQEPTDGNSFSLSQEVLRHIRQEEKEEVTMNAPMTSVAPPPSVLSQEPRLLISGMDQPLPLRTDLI
The description is as above.

B1: HA-DrSTING stably expressed in MEF Sting-/- (MEF^DrSTING) (protein, UniProt E7F4N7 1-398)
chain: MSVMGEDALVPRARSRLPVMCAAGLGFLTLAVAWLLDSDKFSERAGIIAFGLMLERFIYCICLLAEELLFHSRQRYHGRMSEIFRACFRGSGILGMCAIFLMLMLGGVSFSVKQWSHFNLMCAGYMLLNSLGVLGPAPVEISEICEAKKMNVAHGLAWSFYIGYLKFLLPALEVNVREYSRRERLSSPRLHILLPLNARVPSKPEEEDTNVVFHENLPDLKLDRAGVRKRSYTNSVYKITHNNETFSCILEYATPLLTLYQMSQESSAGFGERERKQQVLLFYRTLSQILDNSLECRNRYRLILLNDEHTGDPHYLSRELFQNLKQQDGEIFMDPTNEVHPVPEEGPVGNCNGALQATFHEEPMSDEPTLMFSRPQSLRSEPVETTDYFNPSSAMKQN
B1: the binding result in assay [1] is reported as “binds”.

B2: MmFADS2-FLAG (fatty acid desaturase 2 of Mus musculus) (enzyme, UniProt Q9Z0R9 1-444)
chain: MGKGGNQGEGSTERQAPMPTFRWEEIQKHNLRTDRWLVIDRKVYNVTKWSQRHPGGHRVIGHYSGEDATDAFRAFHLDLDFVGKFLKPLLIGELAPEEPSLDRGKSSQITEDFRALKKTAEDMNLFKTNHLFFFLLLSHIIVMESLAWFILSYFGTGWIPTLVTAFVLATSQAQAGWLQHDYGHLSVYKKSIWNHVVHKFVIGHLKGASANWWNHRHFQHHAKPNIFHKDPDIKSLHVFVLGEWQPLEYGKKKLKYLPYNHQHEYFFLIGPPLLIPMYFQYQIIMTMISRRDWVDLAWAISYYMRFFYTYIPFYGILGALVFLNFIRFLESHWFVWVTQMNHLVMEIDLDHYRDWFSSQLAATCNVEQSFFNDWFSGHLNFQIEHHLFPTMPRHNLHKIAPLVKSLCAKHGIEYQEKPLLRALIDIVSSLKKSGELWLDAYLHK
With B2, the binding result in assay [2], in assay [3] and in assay [4] was “binds” in each case.

B3: endogenous MmFADS2 (fatty acid desaturase 2) of mouse embryonic fibroblasts (enzyme, UniProt Q9Z0R9 1-444)
chain: MGKGGNQGEGSTERQAPMPTFRWEEIQKHNLRTDRWLVIDRKVYNVTKWSQRHPGGHRVIGHYSGEDATDAFRAFHLDLDFVGKFLKPLLIGELAPEEPSLDRGKSSQITEDFRALKKTAEDMNLFKTNHLFFFLLLSHIIVMESLAWFILSYFGTGWIPTLVTAFVLATSQAQAGWLQHDYGHLSVYKKSIWNHVVHKFVIGHLKGASANWWNHRHFQHHAKPNIFHKDPDIKSLHVFVLGEWQPLEYGKKKLKYLPYNHQHEYFFLIGPPLLIPMYFQYQIIMTMISRRDWVDLAWAISYYMRFFYTYIPFYGILGALVFLNFIRFLESHWFVWVTQMNHLVMEIDLDHYRDWFSSQLAATCNVEQSFFNDWFSGHLNFQIEHHLFPTMPRHNLHKIAPLVKSLCAKHGIEYQEKPLLRALIDIVSSLKKSGELWLDAYLHK
Take B3: the binding result in assay [5], in assay [6] and in assay [7] was “binds” each time.

The values above are taken from article PMC13572491.
